Test results: the supplement of paper PMC12024529
Counter-ions that a name gives are not always drawn. The list shows a part of the results. Baselines shift from plate to plate; read single values as rough.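 Wild-type or misfolding-prone missense mutant B-domain-deleted factor VIII, fused to Gaussia luciferase, is stably expressed in HEK293 lines. Each score is (mean triplicate-well luminescence minus DMSO mean) divided by DMSO standard deviation. Hits score at least 2; lower scores could stem from decreased secretion or poorer cell viability.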

Experiments:
HEK293 WT BDD-FVIII-Gluc = assay: secreted FVIII-Gluc luciferase Z-score vs DMSO control; higher = more FVIII-Gluc secretion; details: 5 µM; 24 h
[1] = tested on: HEK293 p.N1941S BDD-FVIII-Gluc; assay: as above; details: 5 µM; 24 h

SMILES	secreted FVIII-Gluc luciferase Z-score (HEK293 WT BDD-FVIII-Gluc)	secreted FVIII-Gluc luciferase Z-score [1]
CC(C)c1nc(CN(C)C(=O)N[C@H](C(=O)N[C@@H](Cc2ccccc2)C[C@H](O)[C@H](Cc2ccccc2)NC(=O)OCc2cncs2)C(C)C)cs1 [Ritonavir]	inactive: -0.261	inactive: -4.53
Clc1ccc(C(Cn2ccnc2)OCc2ccsc2Cl)c(Cl)c1 (stereo not drawn) [Tioconazole]	inactive: -3.03	inactive: -3.53
CNCCc1ccccn1 [Betahistine 2HCl]	inactive: -0.672	inactive: 1.39
O=S(=O)(O)NC1CCCCC1 [Cyclamic  acid]	inactive: -0.47	inactive: -1.87
COc1ccc(C[C@@H]2c3cc(OC)c(OC)cc3CC[N@+]2(C)CCC(=O)OCCCCCOC(=O)CC[N@@+]2(C)CCc3cc(OC)c(OC)cc3[C@H]2Cc2ccc(OC)c(OC)c2)cc1OC [Cisatracurium besylate (Nimbex)]	inactive: -0.267	inactive: -0.279
Nc1nc(=O)[nH]cc1F [Flucytosine (Ancobon)]	inactive: -2.98	inactive: 0.438
Cn1ccnc1S [Methimazole (Tapazole, Northyx)]	inactive: -3.41	inactive: 0.988
Nc1ccn([C@H]2CC[C@@H](CO)O2)c(=O)n1 [Zalcitabine]	inactive: -3.29	inactive: -0.207
O=c1[nH]c(=O)n([C@H]2C[C@H](O)[C@@H](CO)O2)cc1F [Floxuridine]	inactive: -11	inactive: -3.43
CC(C)NCC(O)COc1ccc(COCCOC(C)C)cc1 (stereo not drawn) [Bisoprolol fumarate]	inactive: -1.62	inactive: 0.0555
CCN(CC)CCOC(=O)C(c1ccccc1)c1ccccc1 [Adiphenine HCl]	inactive: -0.552	inactive: -0.625
CN(C)CCc1c[nH]c2ccc(CS(=O)(=O)N3CCCC3)cc12 [Almotriptan malate (Axert)]	inactive: -0.664	inactive: -1.75
CC1(C)S[C@@H]2[C@H](NC(=O)[C@H](N)c3ccccc3)C(=O)N2[C@H]1C(=O)O [Ampicillin Trihydrate]	inactive: -0.779	inactive: 0.221
CN1CCC(=C2c3ccccc3CCc3sccc32)CC1 [Pizotifen malate]	inactive: -4.63	inactive: -2.33
CCCCc1nc(Cl)c(CO)n1Cc1ccc(-c2ccccc2-c2nnn[nH]2)cc1 [Losartan potassium]	inactive: -2.9	inactive: -0.338
CC[C@H]1OC(=O)C[C@@H](O)[C@H](C)[C@@H](O[C@@H]2O[C@H](C)[C@@H](O)[C@H](N(C)C)[C@H]2O)[C@@H](CCN2C[C@H](C)C[C@H](C)C2)C[C@@H](C)C(=O)/C=C/C(C)=C/[C@@H]1CO[C@@H]1O[C@H](C)[C@@H](O)[C@@H](OC)[C@H]1OC [Tilmicosin]	inactive: -0.233	inactive: 0.293
CC(=O)Oc1ccccc1C(=O)O [Aspirin (Acetylsalicylic acid)]	inactive: -1.19	inactive: -1.65
C#Cc1cccc(Nc2ncnc3cc(OCCOC)c(OCCO)cc23)c1 [OSI-420 (Desmethyl Erlotinib)]	inactive: -2.88	inactive: -1.99
Cc1c(NC(=O)c2cccnc2)c(=O)n(-c2ccccc2)n1C [Nifenazone]	inactive: -1.25	inactive: 1.38
NC[C@H](O)c1ccc(O)c(O)c1 [Noradrenaline bitartrate monohydrate (Levophed)]	inactive: 0.493	inactive: -0.131
Cc1onc(-c2c(Cl)cccc2Cl)c1C(=O)N[C@@H]1C(=O)N2[C@@H]1SC(C)(C)[C@@H]2C(=O)O [Dicloxacillin Sodium]	inactive: 0.729	inactive: 0.113
NC(CO)C(=O)NNCc1ccc(O)c(O)c1O (stereo not drawn) [Benserazide]	inactive: -1.36	inactive: -0.831
CC#C[C@]1(O)CC[C@H]2[C@@H]3CCC4=CC(=O)CCC4=C3[C@@H](c3ccc(N(C)C)cc3)C[C@@]21C [Mifepristone (Mifeprex)]	inactive: -6.26	inactive: -0.884
COc1ccc(C2CNC(=O)C2)cc1OC1CCCC1 (stereo not drawn) [S-(+)-Rolipram]	inactive: -0.798	inactive: -0.0321
C[C@@H]1CC(=O)NN=C1c1ccc(NN=C(C#N)C#N)cc1 [Levosimendan]	inactive: -2.09	inactive: -2.15
CN(C)CCOc1ccc(/C(=C(/CCCl)c2ccccc2)c2ccccc2)cc1 [Toremifene Citrate (Fareston, Acapodene)]	inactive: -0.939	inactive: -0.472
C[C@H]1C[C@@H]2[C@H]([C@@H](O)C[C@@]3(C)[C@H]2CC[C@]3(O)C(=O)CO)[C@@]2(C)C=CC(=O)C=C12 [Methylprednisolone]	active: 4.99	active: 5.64

Single values from the results shown:
secreted FVIII-Gluc luciferase Z-score (HEK293 WT BDD-FVIII-Gluc), CC1(C)S[C@@H]2[C@H](NC(=O)[C@H](N)c3ccccc3)C(=O)N2[C@H]1C(=O)O [Ampicillin Trihydrate] is entered as inactive: -0.779
secreted FVIII-Gluc luciferase Z-score [1], CC(=O)Oc1ccccc1C(=O)O [Aspirin (Acetylsalicylic acid)] is entered as inactive: -1.65

Continuation.

SMILES	secreted FVIII-Gluc luciferase Z-score (HEK293 WT BDD-FVIII-Gluc)	secreted FVIII-Gluc luciferase Z-score [1]
CC(=O)NS(=O)(=O)c1ccc(N)cc1 [sulfacetamide sodium]	inactive: -1.63	inactive: -0.351
CC(C)OC(=O)OCOP(=O)(CO[C@H](C)Cn1cnc2c(N)ncnc21)OCOC(=O)OC(C)C [Tenofovir Disoproxil Fumarate]	inactive: -1.42	inactive: -1.02
CC(C)(Sc1cc(C(C)(C)C)c(O)c(C(C)(C)C)c1)Sc1cc(C(C)(C)C)c(O)c(C(C)(C)C)c1 [Probucol]	inactive: -0.707	inactive: -1.09
Cc1nc2n(c(=O)c1CCN1CCC(c3noc4cc(F)ccc34)CC1)CCCC2 [Risperidone (Risperdal)]	inactive: -1.43	inactive: 0.11
CC(=O)OCC(=O)[C@@]1(O)CC[C@H]2[C@@H]3CCC4=CC(=O)CC[C@]4(C)[C@H]3C(=O)C[C@@]21C [Cortisone acetate (Cortone)]	inactive: 0.143	inactive: -1.07
COc1c(N2CCNC(C)C2)c(F)cc2c(=O)c(C(=O)O)cn(C3CC3)c12 (stereo not drawn) [Gatifloxacin]	inactive: -4.32	inactive: -2.53
CC[N+](CC)(CC)CCOc1cccc(OCC[N+](CC)(CC)CC)c1OCC[N+](CC)(CC)CC [Gallamine triethiodide (Flaxedil)]	inactive: -0.214	inactive: 0.752
Cc1cc2c(cc1S(N)(=O)=O)S(=O)(=O)CCC2 [Meticrane]	inactive: 0.6	inactive: 0.97
CN(C)CCc1c[nH]c2ccc(Cn3cncn3)cc12 [Rizatriptan Benzoate]	inactive: -1.52	inactive: 0.291
CC(C)(C)c1ccc(C(O)CCCN2CCC(C(O)(c3ccccc3)c3ccccc3)CC2)cc1 (stereo not drawn) [Terfenadine]	inactive: -2.2	inactive: 0.81
CN1CCN(CCCN2c3ccccc3Sc3ccc(C(F)(F)F)cc32)CC1 [Trifluoperazine 2HCl]	inactive: -1.1	inactive: -3.63
Nc1c2c(nc3ccccc13)CCCC2 [Tacrine HCl]	inactive: -0.717	inactive: 1.99
CN/C(=N\CCSCc1nc[nH]c1C)NC#N [Cimetidine (Tagamet)]	inactive: -2.99	inactive: -0.413
O=C1c2c(O)ccc(O)c2C(=O)c2c(NCCNCCO)ccc(NCCNCCO)c21 [Mitoxantrone Hydrochloride]	inactive: -5.68	inactive: -7.82
Cc1ncc([N+](=O)[O-])n1CC(O)CCl (stereo not drawn) [Ornidazole]	inactive: -1.11	inactive: 0.315
CNC[C@H](O)[C@@H](O)[C@H](O)[C@H](O)CO [Meglumine]	inactive: 0.468	inactive: 0.643
C[C@@H](O[C@H]1OCCN(Cc2nn(P(=O)(O)O)c(=O)[nH]2)[C@H]1c1ccc(F)cc1)c1cc(C(F)(F)F)cc(C(F)(F)F)c1 [Fosaprepitant dimeglumine]	inactive: 0.00975	inactive: -0.569
COc1c2occc2cc2ccc(=O)oc12 [Methoxsalen (Oxsoralen)]	inactive: -2.34	inactive: -0.794
CC(C)(C(=O)O)c1ccc(C(O)CCCN2CCC(C(O)(c3ccccc3)c3ccccc3)CC2)cc1 (stereo not drawn) [Fexofenadine HCl]	inactive: -0.927	inactive: -0.428
CN(N=O)C(=O)NC1C(O)OC(CO)C(O)C1O (stereo not drawn) [Streptozotocin (Zanosar)]	inactive: -2	inactive: -0.0647
O=C(O)C1=CO[C@@H](O[C@@H]2O[C@H](CO)[C@@H](O)[C@H](O)[C@H]2O)[C@@H]2C(CO)=CC[C@H]12 [Geniposidic acid]	inactive: 0.899	inactive: -0.0303
CCCCOc1ccc(CC(=O)NO)cc1 [Bufexamac]	inactive: -1.84	inactive: 0.0149
CCCC(C(=O)OCCN(CC)CC)(c1ccccc1)c1ccccc1 [Proadifen HCl]	inactive: -0.714	inactive: 0.929
CCCN[C@H]1CCc2nc(N)sc2C1 [Pramipexole (Mirapex)]	inactive: -1.76	inactive: -0.887
CN(C)c1nc(N(C)C)nc(N(C)C)n1 [Altretamine (Hexalen)]	active: 4.9	inactive: -2.19
CCCCCCOC(=O)NC(=N)c1ccc(NCc2nc3cc(C(=O)N(CCC(=O)OCC)c4ccccn4)ccc3n2C)cc1 [BIBR-1048 (Dabigatran)]	inactive: -0.488	inactive: -1.13
CC(c1cc2ccccc2s1)N(O)C(N)=O (stereo not drawn) [Zileuton]	inactive: -3.58	inactive: 0.0221
